Measurements published in PubChem BioAssay AID493014 (National Center for Advancing Translational Sciences (NCATS), 2011).
The other results are listed elsewhere or left out. Shown are side measurements of this screen, not its main read-out; they come without a call. Compounds called inactive in the main read-out are mostly missing here. Words in brackets tell the shape of the fitted curve; partial curves, single points and poor fits give uncertain potencies.

Test: qHTS Assay to Find Inhibitors of Chronic Active B-Cell Receptor Signaling
Conditions: ABC-DLBCL IkBa-CBG/CBR reporter, luminescence ratio (green luciferase fused to IkBa over red control in TMD8 lymphoma cells), 4 h
Method in brief: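 Concentration-response series (up to 46 uM) were applied to TMD8 dual-reporter cells for 4 h at 37C with doxycycline. Green/red ratio, after filter-overlap correction, defined %Activity; red signal alone was normalised to basal cells and zero luminescence.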

[1] = measured here: CBR red luminescence, cell number
[2] = measured here: IkBa-CBG green luminescence

| SMILES | AC50 [1] | AC50 [2] |
| --- | --- | --- |
| O=C(Nc1ccc(N2CCCCC2)cc1)C(Cl)c1ccccc1 (configuration not stated) | 1.78 µM [rising, partial curve] | – |
| Cc1ccccc1CN(C)C(=O)COC(=O)c1ccc2[nH]c(C)c(C)c2c1 | 29.1 µM [falling, single point] | – |
| CCOC(=O)c1c(/N=C/C2=C(O)CC(C)(C)CC2=O)sc(C)c1C | 9.2 µM [rising, partial curve, poor fit] | – |
| CC1CCN(C(=O)CSc2nc3ccccc3[nH]2)CC1 | 1.64 µM [rising, full curve, poor fit] | – |
| O=C(/C=C/Nc1ccccc1)c1ccc(Cl)cc1Cl | 31.6 µM [falling, single point] | – |
| COc1cc(C(=O)NC(C)CCc2ccccc2)cc(OC)c1OC (configuration not stated) | 11.2 µM [rising, partial curve] | – |
| CCOC(=O)C(=O)Nc1nnc(C2CCCCC2)s1 | 0.13 µM [rising, full curve] | – |
| O=C(COC(=O)c1ncc(Cl)c(Cl)c1Cl)NCCc1ccccc1 | 2.31 µM [falling, partial curve, poor fit] | – |
| COc1ccc(/C=C/C(=O)NC(C)CCc2ccccc2)cc1OC (configuration not stated) | 35.5 µM [falling, single point] | – |
| COc1cc(/C=N/NC(=O)c2ccc(O)cc2)ccc1OCC(=O)N1CC(C)OC(C)C1 (configuration not stated) | 0.794 µM [falling, full curve] | – |
| CC(=O)c1sc(NC(=O)C2CCN(C(=O)c3ccccc3C)CC2)nc1-c1ccccc1 | 11.6 µM [falling, partial curve, poor fit] | – |
| CCC(=O)Nc1ccc(-n2nnnc2SCC(=O)NNC(=O)c2ccco2)cc1 | 6.31 µM [rising, partial curve, poor fit] | – |
| CCCCn1c(CCCNC(=O)CC)nc2ccccc21 | 25.9 µM [falling, single point] | – |
| C=CCN(C1CCCCC1)S(=O)(=O)c1ccc2c(c1)oc(=O)n2C | 20 µM [falling, partial curve, poor fit] | – |
| O=C(O)c1cccc(Cn2c(Cl)c(/C=N/NC(=O)c3ccccc3O)sc2=O)c1 | 11.2 µM [falling, partial curve] | – |
| Oc1ccc(Cl)cc1CNCc1ccc(Cl)cc1 | 6.51 µM [rising, single point] | – |
| CCC(CO)NC(=O)c1cc2c(s1)CCC2 (configuration not stated) | 7.31 µM [falling, single point] | – |
| O=S(=O)(c1ccc(F)cc1)N(CCO)CC(O)Cn1c2ccccc2c2ccccc21 (configuration not stated) | 6.51 µM [falling, single point] | – |
| O=c1[nH]n2c(-c3ccccc3)nc(O)c2c2ccccc12 | 2.24 µM [falling, full curve, poor fit] | – |
| O=C(Cc1ccccn1)c1ccc(O)cc1O | 5.01 µM [rising, partial curve] | – |
| Cc1ccc(CNC(=O)c2ccc(C#CC(C)(C)O)s2)cc1 | 23.1 µM [rising, partial curve, poor fit] | – |
| CCc1nnc(NC(=O)CSc2ccc(-c3nc4ccccc4[nH]3)cn2)s1 | 7.08 µM [falling, partial curve] | – |

| SMILES | AC50 [1] | AC50 [2] |
| --- | --- | --- |
| CN1C(=O)C(/C(N)=N/NC(=O)c2ccccc2)C2CC1(C)Oc1ccccc12 (configuration not stated) | 2.06 µM [falling, partial curve, poor fit] | – |
| COc1ccccc1N1CCN(C(=O)c2sc3nc(-c4ccc(F)cc4)cn3c2C)CC1 | 29.1 µM [falling, single point] | – |
| C(#Cc1ccccc1)Cn1nnc2ccccc21 | 25.9 µM [rising, partial curve, poor fit] | – |
| CCOc1ccccc1OCC(=O)Nc1cc2c(cc1C(=O)O)OCCCO2 | 35.5 µM [falling, single point] | – |
| Cc1ccc(C)c(N(CC(=O)NCc2ccccc2)C(=O)c2csnn2)c1 | 4.47 µM [rising, single point] | – |
| COc1ccc(C(=O)Nc2ccc(Cl)cc2C(=O)N2CCCC(C)C2)cc1 (configuration not stated) | 1.84 µM [rising, full curve] | – |
| O=C(CCCN1C(=O)/C(=C/c2ccccc2Cl)SC1=S)N1CCCC1 | 8.91 µM [falling, partial curve, poor fit] | – |
| COc1cc(CN2CCc3ccccc3C2)ccc1O | 35.5 µM [falling, single point] | – |
| O=C(CCC(=O)OCC(=O)c1ccc(Br)cc1)Nc1ccc(Br)c2cccnc12 | 2.31 µM [falling, full curve, poor fit] | – |
| Clc1ccc(/C=C/c2nc(Cl)c(-c3ccc(Cl)cc3)c(Cl)n2)cc1 | 1.26 µM [falling, partial curve, poor fit] | – |
| Nc1cc(Oc2ccc(F)cc2F)cc([N+](=O)[O-])c1 | 14.1 µM [rising, single point] | – |
| CCN(CC)S(=O)(=O)c1ccc(N/N=C(\C)c2ccncc2)nc1 | 22.4 µM [rising, partial curve, poor fit] | – |
| COc1ccc(-c2sc3ccc(OC)cc3c2C#Cc2ccccn2)cc1 | 20.6 µM [rising, partial curve] | – |
| CCOC(=O)c1ccccc1OCc1cc(/C=N/NC(=O)c2cccnc2)ccc1OC | 10 µM [falling, partial curve] | – |
| O=C(/C=C/c1ccco1)NC(=S)Nc1ccc(N2CCCC2)cc1 | 20.6 µM [falling, partial curve] | – |
| COc1cccc2c(SCC(=O)N/N=C/c3ccc(O)cc3O)cc(C)nc12 | 35.5 µM [falling, single point] | – |
| CCOC(=O)c1c(C)sc2c1N(C(C)=O)c1cc(Cl)ccc1S2 | 1.12 µM [rising, full curve, poor fit] | 7.94 µM [falling, partial curve] |
| CN(C)S(=O)(=O)c1cccc(NC(=O)CSc2nc3ccccc3[nH]2)c1 | 35.5 µM [falling, single point] | – |
| COc1ccc(CCC(=O)NCc2cnn(C)c2)cc1 | 0.731 µM [rising, partial curve, poor fit] | – |
| CCOC(=O)c1c(C)[nH]c(C(=O)CN2C(=O)NC(CC)(c3ccccc3)C2=O)c1C (configuration not stated) | 0.794 µM [falling, partial curve, poor fit] | 0.708 µM [rising, full curve, poor fit] |
| CC(C(=O)Nc1nccs1)c1ccc([N+](=O)[O-])cc1 (configuration not stated) | 1.78 µM [rising, partial curve, poor fit] | – |
| COc1ccc(C(=O)COC(=O)/C=C/c2ccccc2)cc1 | 3.98 µM [rising, single point] | – |

17 successive entries out of the list so far:

| SMILES | AC50 [1] | AC50 [2] |
| --- | --- | --- |
| COc1ccc(C(=O)Nc2ccc(Cl)cc2C(=O)N2CCCC(C)C2)cc1 (configuration not stated) | 1.84 µM [rising, full curve] | – |
| O=C(CCCN1C(=O)/C(=C/c2ccccc2Cl)SC1=S)N1CCCC1 | 8.91 µM [falling, partial curve, poor fit] | – |
| COc1cc(CN2CCc3ccccc3C2)ccc1O | 35.5 µM [falling, single point] | – |
| O=C(CCC(=O)OCC(=O)c1ccc(Br)cc1)Nc1ccc(Br)c2cccnc12 | 2.31 µM [falling, full curve, poor fit] | – |
| Clc1ccc(/C=C/c2nc(Cl)c(-c3ccc(Cl)cc3)c(Cl)n2)cc1 | 1.26 µM [falling, partial curve, poor fit] | – |
| Nc1cc(Oc2ccc(F)cc2F)cc([N+](=O)[O-])c1 | 14.1 µM [rising, single point] | – |
| CCN(CC)S(=O)(=O)c1ccc(N/N=C(\C)c2ccncc2)nc1 | 22.4 µM [rising, partial curve, poor fit] | – |
| COc1ccc(-c2sc3ccc(OC)cc3c2C#Cc2ccccn2)cc1 | 20.6 µM [rising, partial curve] | – |
| CCOC(=O)c1ccccc1OCc1cc(/C=N/NC(=O)c2cccnc2)ccc1OC | 10 µM [falling, partial curve] | – |
| O=C(/C=C/c1ccco1)NC(=S)Nc1ccc(N2CCCC2)cc1 | 20.6 µM [falling, partial curve] | – |
| COc1cccc2c(SCC(=O)N/N=C/c3ccc(O)cc3O)cc(C)nc12 | 35.5 µM [falling, single point] | – |
| CCOC(=O)c1c(C)sc2c1N(C(C)=O)c1cc(Cl)ccc1S2 | 1.12 µM [rising, full curve, poor fit] | 7.94 µM [falling, partial curve] |
| CN(C)S(=O)(=O)c1cccc(NC(=O)CSc2nc3ccccc3[nH]2)c1 | 35.5 µM [falling, single point] | – |
| COc1ccc(CCC(=O)NCc2cnn(C)c2)cc1 | 0.731 µM [rising, partial curve, poor fit] | – |
| CCOC(=O)c1c(C)[nH]c(C(=O)CN2C(=O)NC(CC)(c3ccccc3)C2=O)c1C (configuration not stated) | 0.794 µM [falling, partial curve, poor fit] | 0.708 µM [rising, full curve, poor fit] |
| CC(C(=O)Nc1nccs1)c1ccc([N+](=O)[O-])cc1 (configuration not stated) | 1.78 µM [rising, partial curve, poor fit] | – |
| COc1ccc(C(=O)COC(=O)/C=C/c2ccccc2)cc1 | 3.98 µM [rising, single point] | – |

Further entries.

| SMILES | AC50 [1] | AC50 [2] |
| --- | --- | --- |
| O=C(Nc1nnc(C2=COCCO2)o1)c1cccc([N+](=O)[O-])c1 | 11.2 µM [rising, partial curve, poor fit] | – |
| CNC(=O)c1sc(=S)n(-c2ccc(OC)cc2)c1N | 14.1 µM [rising, single point] | – |
| CN(CC(=O)Nc1ccc(F)cc1)C(=O)C1CCN(S(=O)(=O)c2ccc3c(c2)OCCO3)CC1 | 5.17 µM [falling, partial curve, poor fit] | – |
| CCn1nnnc1SCC(=O)Nc1nc(-c2cccs2)cs1 | 10.3 µM [falling, single point] | – |
| Cc1ccc(OCCOC(=O)c2sc(=S)n(C)c2C)cc1 | 4.47 µM [rising, full curve] | – |
| O=C(COC(=O)c1ccccc1OCc1ccc(F)cc1)NCC1CCCO1 (configuration not stated) | 16.4 µM [falling, partial curve, poor fit] | – |
| COc1ccc(/C=N/n2c(C)nc3ccccc3c2=O)cc1OC | 6.31 µM [rising, partial curve, poor fit] | – |
| Cc1ccc(C(=O)N/C(=C\c2ccc(-c3cc(Cl)ccc3Cl)o2)C(=O)NCc2cccnc2)cc1 | 10 µM [falling, partial curve, poor fit] | – |
| CSc1nc2ccc3nc(NC(=O)c4ccccc4)sc3c2s1 | 8.2 µM [falling, partial curve] | – |
| O=C(/C=C/c1ccccc1Cl)N1CCN(c2ncccn2)CC1 | 6.51 µM [rising, single point] | – |
| COCCNC(=O)C1CCN(Cc2cc3ccccc3n2Cc2ccc(C)cc2)CC1 | 35.5 µM [falling, single point] | – |
| O=C(/C=C/c1cccs1)NC1CCCC1 | 35.5 µM [falling, single point] | – |
| CCOC(=O)c1c(N)sc(C(=O)OC)c1C | 14.1 µM [rising, single point] | 35.5 µM [falling, partial curve, poor fit] |
| O=C1c2ccccc2C(=O)N1CCCC[C@]12Cc3ccccc3C(O1)c1c(c3ccccc3oc1=O)O2 | 0.891 µM [falling, full curve, poor fit] | – |
| Cc1ccc(C)c(-c2csc(NC(=O)C3=COCCO3)n2)c1 | 0.651 µM [rising, full curve, poor fit] | – |
| Clc1nssc1=Nc1ccccc1 | 10 µM [falling, partial curve] | – |
| CC1CN(S(=O)(=O)c2cccc(C(F)(F)F)c2)CC(C)O1 (configuration not stated) | 0.1 µM [falling, full curve, poor fit] | – |
| C/C(=N\Nc1ccc(Cl)c(C(=O)O)c1)c1ccc(N2CCOCC2)cc1 | 22.4 µM [falling, single point] | – |
| CN(CCOc1ccc(Br)cc1)C(=O)CNC(=O)c1ccc2ccccc2c1 | 22.4 µM [falling, single point] | – |
| COc1ccc(OCC(=O)N2N=C(C(F)F)CC2(O)C(F)F)cc1 (configuration not stated) | 0.326 µM [rising, full curve, poor fit] | – |
